Our source for the binding signal values is publication PMC7819943, “Rice protein-binding microarrays: a tool to detect cis-acting elements near promoter regions in rice”.

Sequences of proteins named here, by UniProt entry; tags and fusion partners are left off.
UniProt Q0JBA9, entry or part of it: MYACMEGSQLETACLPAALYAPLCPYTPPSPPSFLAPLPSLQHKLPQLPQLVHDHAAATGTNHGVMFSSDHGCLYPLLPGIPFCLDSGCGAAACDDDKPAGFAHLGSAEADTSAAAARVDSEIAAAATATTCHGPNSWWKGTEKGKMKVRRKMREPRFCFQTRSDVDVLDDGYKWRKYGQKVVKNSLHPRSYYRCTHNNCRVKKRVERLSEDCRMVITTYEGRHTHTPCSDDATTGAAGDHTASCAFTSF

This is one part of the list.

The test addresses OsWRKY34 (Oryza sativa, UniProt Q0JBA9 1-250). The test can be described thus: protein-binding microarray (RPBM); PBS, 2% BSA, 51.3 ng/ul salmon testes DNA, 50 uM zinc acetate, 200 nM TF, 25 C, 1 h; high values mean tight binding. The settings on record: protein: recombinant; tags: N-terminal polyhistidine and DsRed monomer fusion (pET32a); label: CyDye5-dUTP incorporated in the synthesized complementary strand; 3' TTTTT single-stranded linker to array surface; dsDNA, one strand shown. In short, it runs like this: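 The binding signal is fluorescence intensity per feature, in arbitrary units, read on an Axon 4000B scanner. Polyhistidine- and DsRed-tagged transcription factors (N-terminal fusions) from E. coli BL21-CodonPlus were purified on Ni–NTA and applied at 200 nM for 1 h at 25 °C to a double-stranded, BSA-blocked custom Agilent array in buffer with 50 µM zinc acetate.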
With “CTCGCCCTCCGCCGCGCGCTCCCGTACTACAATGACGCCGCGGAGTCACCTAGTGCAG”, the binding signal is 8610 fluorescence intensity (a.u.).
To “AGTTTTGTTTGTGATGAGTTTGAGTTGTGACTGGGCTTCTCGGAGTCACCTAGTGCAG” belongs 9290 fluorescence intensity (a.u.); to “TGTGCTAAAAAAGTCAACGGTGTCAAATATTTCGAAACGGCGGAGTCACCTAGTGCAG”, 14700 fluorescence intensity (a.u.); to “CTTCATTACCTTGCTTTTGTAGTTTCTCCTGTCTACATTCCGGAGTCACCTAGTGCAG”, 10700 fluorescence intensity (a.u.).
With “CTCAGGCATGTTCCTCGTACTTCTACATTATTATTTATTTCGGAGTCACCTAGTGCAG” the figure was 8850 fluorescence intensity (a.u.); with “GGCTCTAACTCTGGAACACACGCACATCTCTTTTTCGGGACGGAGTCACCTAGTGCAG”, 9700 fluorescence intensity (a.u.); with “AGATTCGTGTAGACCCATTGTCTGGCAGCGGCGATCGTCCCGGAGTCACCTAGTGCAG”, 8040 fluorescence intensity (a.u.).
With “CTCTGTATCTGTGACCATCTCGCTTCGTCATCTCGTCGTCCGGAGTCACCTAGTGCAG” the figure was 10500 fluorescence intensity (a.u.).
With “CCCAGCTTCTCCAGGTTCTAGCTTCTTAGTTCATTTTTCACGGAGTCACCTAGTGCAG”, the binding signal was 9670 fluorescence intensity (a.u.).
With “GGATGTGGTTGGCTGGTTTTCATTCGCACTGTATATATATCGGAGTCACCTAGTGCAG” the figure was 11600 fluorescence intensity (a.u.); with “CGCCACTGCCCTTTCCCCATCGCGCCTGCTGGACCCGACGCGGAGTCACCTAGTGCAG”, 8090 fluorescence intensity (a.u.); with “TGTATCAGTATCAGAATTTACAATCCTTCGCGTGAAATTTCGGAGTCACCTAGTGCAG”, 8880 fluorescence intensity (a.u.).
For the sequence “ATGCACAGGTGAGTAGATTTGGTTCCCCAACCTCCGCTTCCGGAGTCACCTAGTGCAG”, the binding signal was 10100 fluorescence intensity (a.u.).
To “AATTGTCAGCGCCGTGTTGTTTGTAAGTACTCAAAATTTCCGGAGTCACCTAGTGCAG” belongs 11200 fluorescence intensity (a.u.); to “CGTCCATCTCCTTCTCCGCGCGGTGGTTTGACTGCTTTGACGGAGTCACCTAGTGCAG”, 10500 fluorescence intensity (a.u.); to “GTTTGTTTGTTTTTCTGCGCGCACGCTTCCCGAACTACTACGGAGTCACCTAGTGCAG”, 12100 fluorescence intensity (a.u.).
As to “CGATGTTTGAACACCCTGTTATTGCGCTCTTTCCAAATTGCGGAGTCACCTAGTGCAG”, the binding signal was 8080 fluorescence intensity (a.u.).
With “ATTTTTATTCTTTTTTCCCGTCCCTATTTTTTATTCATATCGGAGTCACCTAGTGCAG” the figure was 11000 fluorescence intensity (a.u.).
On to “ACCCCACAGGTTTAAATTCCTGGCTCCGCCACTGATGCACCGGAGTCACCTAGTGCAG”, for which the binding signal is 8470 fluorescence intensity (a.u.).
To “GATTCCCTTCTTTTCTTTGGTTGATTTCTTTCTGTATTTCCGGAGTCACCTAGTGCAG” belongs 8280 fluorescence intensity (a.u.); to “TATAGGCAGTCCCTTTTTTTATTTCTAATGCCACGTTAACCGGAGTCACCTAGTGCAG”, 10900 fluorescence intensity (a.u.); to “CATTACATTTGACTCTAATTCCACTACATCATTAGAGTATCGGAGTCACCTAGTGCAG”, 9550 fluorescence intensity (a.u.).
As to “GTGATATGACATGGTTGTTCCATCGACGTGGTATACTATTCGGAGTCACCTAGTGCAG”, the binding signal was 8090 fluorescence intensity (a.u.).
For “CGCCGCCGCATCCTCCTCCTCGCGCCTCTCGCTATCCATGCGGAGTCACCTAGTGCAG”, the binding signal is 8180 fluorescence intensity (a.u.).
To “GTAACTATTGGTTCCTAATATCGGCCCAATCAATTGCGTTCGGAGTCACCTAGTGCAG” belongs 9780 fluorescence intensity (a.u.); to “GTCCTGGTGTTCCGATCGATCGACGTGGTGTACATGCATCCGGAGTCACCTAGTGCAG”, 8330 fluorescence intensity (a.u.); to “TGTTGTTGTGGTGGTGGTGGTGGTGGTAGTGCGTGAGTGACGGAGTCACCTAGTGCAG”, 21200 fluorescence intensity (a.u.).
To “CAAAAAAAATTACCGGTTCGTTTCCTTTGTTTATGTAGCCCGGAGTCACCTAGTGCAG” belongs 8300 fluorescence intensity (a.u.); to “AATCTCGTTCCTTGCTGTTGTGACTAGTATCGTTGCCTACCGGAGTCACCTAGTGCAG”, 10500 fluorescence intensity (a.u.); to “GGGTTTTTGGTTTTGGTTTTGATTTTGATTTTGATTTTGACGGAGTCACCTAGTGCAG”, 16400 fluorescence intensity (a.u.).
On to “TTCTCCTATCTTCAACATTTGCTTTGTTACGTTTTTGACTCGGAGTCACCTAGTGCAG”, for which the binding signal is 9560 fluorescence intensity (a.u.).
With “GCTTTGCACTCTCCGCGCCCCTCCTGTGTCTTCACGCTTTCGGAGTCACCTAGTGCAG” the figure was 9370 fluorescence intensity (a.u.); with “AGCTGGTTGGTTGCATGAGACTATTGAAATTCCTAGCGATCGGAGTCACCTAGTGCAG”, 8850 fluorescence intensity (a.u.); with “TCGCGTCGCTGGCCGCCACCGCCGGACCTCCCCGTGACTCCGGAGTCACCTAGTGCAG”, 8680 fluorescence intensity (a.u.).
To “CCGTCCATCCGCCAACTCATCCAATCTCATCCGTCCATCGCGGAGTCACCTAGTGCAG” belongs 13900 fluorescence intensity (a.u.); to “GCATTCTCATGCCTATCTAATCATAATTTTCTGTTTCATACGGAGTCACCTAGTGCAG”, 8800 fluorescence intensity (a.u.); to “CCAATTCGCCATCCGTCTGTCGACCGCATCTTAATATCCGCGGAGTCACCTAGTGCAG”, 17400 fluorescence intensity (a.u.).
As to “GTCTCCAAAATGTGTTTCCAGGGCCCTCGTTGCTCTTTTACGGAGTCACCTAGTGCAG”, the binding signal is 12100 fluorescence intensity (a.u.).
Take “GCTGTTCTTCTTGTCGTCTGTTCTAGCCCATTCTCCGCTGCGGAGTCACCTAGTGCAG”: the binding signal was 14300 fluorescence intensity (a.u.).
As for “ACGTGTCCATTGTTTTTTTTTTTTTGCCAGTGAAAATTCGCGGAGTCACCTAGTGCAG”, the binding signal was 11000 fluorescence intensity (a.u.).
To “TAAAAAGTCAACGGTGTCAAACATTTCGAAACGGAGGGAGCGGAGTCACCTAGTGCAG” belongs 8970 fluorescence intensity (a.u.); to “CCGTGCAGCTCTCACTTGATCATCTTATCGCTACTCAGCCCGGAGTCACCTAGTGCAG”, 10100 fluorescence intensity (a.u.).
